A short description of data set [1]: in vivo. The conditions noted are these: mouse, po, 38 mg/kg. The text has this: Compounds were solubilized in propylene glycol, except for the Hetacillin
Data set [2] is described as follows: in vivo. The conditions noted are these: mouse, po, 38 mg/kg, Blood Level.

On to `CC1(CCl)C(C(=O)O)N2C(=O)CC2S1(=O)=O` (stereo not drawn) [BL-P2013, Potassium 2β-Chloromethyl-2α-methylpenam-3α-carboxylate Sulfone], for which the concentration at 1 h in the data set “in vivo [1]” and in the data set “in vivo [2]” was 2100 ng/mL throughout.

The values are drawn from patent US4380512A, “2β-Chloromethyl-2α-methylpenam-3α-carboxylic acid sulfone and salts and esters thereof” (Bristol-Myers Company, priority 1981, dated 1983).
